The list shows a part of the results. Further columns of the screen follow, without active or inactive calls. Compounds called inactive in the main read-out are mostly missing here. The note in brackets gives the kind of curve behind each potency; many fits are weak.
Assay: qHTS Assay for Lipid Storage Modulators in Drosophila S3 Cells;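 as to cell number change: cells counted by Cell Tracker Red CMTPX staining in the red channel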
Conditions: BODIPY lipid droplet fluorescence, 18-24 h; for cell number change: measured here: cell count max response, cells fed with added oleic acid
How it was run: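 Drosophila S3 cells loaded with oleic acid (400 uM, as added) and compounds at several concentrations; lipid droplets imaged by 488-nm laser-scanning cytometry, 500–530 nm intensity and object ratio to cell channel. Percent activity normalized to 20 uM Triacsin C.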

[1] = measured here: lipid fluorescence (Fed channel) AC50, cells fed with added oleic acid
[2] = measured here: cell number channel AC50, cells fed with added oleic acid

Row | Structure (SMILES) | cell number change | AC50 [1] | AC50 [2]
1 | c1ccc(CNc2nc(-c3cccs3)nc3ccccc23)nc1 | -2.84% | 29.1 µM [rising, partial curve, poor fit] | 
2 | CC(C)c1ccc(/C=C/C(=O)NC2=NCCS2)cc1 | -27% | 0.291 µM [rising, partial curve, poor fit] | 
3 | CCCCNS(=O)(=O)c1ccc2nc(-c3cccnc3)cc(C(=O)NCC(OC)OC)c2c1 | 55.6% | 23.1 µM [rising, single point] | 10.3 µM [rising, partial curve, poor fit]
4 | O=C(Cc1ccccc1[N+](=O)[O-])NCc1ccncc1 | -33.5% |  | 
5 | Cc1ccc(NC(=O)c2c(C)nc3ccccn23)cc1C | 27.9% |  | 
6 | CCOC(=O)N1CCN(C(=O)CCCOc2ccccc2)CC1 | 1.52% |  | 
7 | CCOc1ccccc1NC(=O)CC1SC(=N)N(c2ccccc2)C1=O (stereo not given) | -14.9% | 13 µM [falling, partial curve, poor fit] | 
8 | O=Cc1ccc(-c2ccc(C(=O)O)cc2)o1 | -34.2% | 0.13 µM [falling, full curve, poor fit] | 0.0206 µM [falling, full curve]
9 | CC(C)(C)OC(=O)NNC(=O)c1ccc(Cl)cc1 | -69.8% |  | 18.4 µM [falling, single point]
10 | O=C(OCC(=O)N1CCCC1)c1c2c(nc3ccccc13)CCCCC2 | 34.6% | 5.17 µM [rising, full curve, poor fit] | 5.17 µM [rising, full curve, poor fit]
11 | COc1cc(C(=O)NCCN=C2NS(=O)(=O)c3ccccc32)cc(OC)c1OC | -19.2% | 23.1 µM [falling, partial curve, poor fit] | 
12 | O=C(CSc1nnc(CNC(=O)c2ccc(F)cc2)o1)Nc1ccc2c(c1)OCCO2 | 37.3% |  | 16.4 µM [rising, partial curve, poor fit]
13 | CCOc1ccc(-c2n[nH]c(C)c2-c2ccccn2)c(O)c1 | 58.2% |  | 29.1 µM [rising, single point]
14 | Cc1ccc(-n2nc3c(c2NC(=O)C2CC2)CS(=O)(=O)C3)cc1C | 43.5% | 23.1 µM [rising, single point] | 23.1 µM [rising, single point]
15 | Cc1ccc(C2C(C#N)=C(N)Oc3cc(N)ccc32)cc1 (stereo not given) | -20.5% |  | 
16 | O=S(=O)(NCc1ccccc1)c1ccc(NC(=S)NCc2ccco2)cc1 | -26.7% | 29.1 µM [falling, single point] | 
17 | COc1ccccc1/C=C1\SC(=S)N(N2C(=O)CCCC2=O)C1=O | -5.71% | 1.16 µM [falling, single point] | 
18 | Cc1n[nH]c(=S)n1-c1cccc(Cl)c1 |  | 18.4 µM [rising, single point] | 6.51 µM [rising, single point]
19 | COC(=O)NNC(=O)c1ccccc1C |  | 23.1 µM [falling, partial curve] | 
20 | CCN(CC(=O)Nc1ccc(Br)cc1)C(=O)Cc1cccc(F)c1 | 7.83% |  | 
21 | CC(=O)Nc1ccc(/C=N/Nc2nc3ccccc3[nH]2)cc1 | -14.9% | 29.1 µM [falling, single point] | 
22 | COc1nc(-c2ccccc2)ncc1S(=O)(=O)c1ccccc1 | -32% |  | 

Row | Structure (SMILES) | cell number change | AC50 [1] | AC50 [2]
23 | Cn1cccc1C(=O)OCc1csc(-c2ccccc2)n1 | -14.1% | 0.0651 µM [falling, full curve, poor fit] | 
24 | Cc1cccn2c(=O)nc(SCC(=O)Nc3ccc4c(c3)OCCO4)nc12 | 42.2% |  | 0.82 µM [rising, full curve, poor fit]
25 | CC(C)Cc1cc(C(=O)NCCc2ccccc2)no1 | -11.1% | 5.8 µM [falling, full curve] | 
26 | COc1ccc(NC(=O)c2cc3c(CO)cnc(C)c3oc2=Nc2cccc(C)c2)c(OC)c1 | -2.78% |  | 
27 | COc1ccc(N2CCN(C(CNC(=O)C(=O)NCc3cccs3)c3ccco3)CC2)cc1 (stereo not given) | -15.6% |  | 0.0058 µM [falling, full curve, poor fit]
28 | O=C(CN1C(=O)c2cccnc2Oc2ccc(Cl)cc21)NC1CCCC1 | 9.27% | 0.731 µM [falling, full curve] | 
29 | O=C(CCN1CCOCC1)NC1CCCN(Cc2ccccc2F)C1 (stereo not given) | 4.33% |  | 
30 | COc1ccccc1C(=O)Nc1cccc(NC(=O)c2ccccc2OC)n1 | -2.05% | 3.26 µM [falling, full curve] | 
31 | CC(C)OP(=O)(OC(C)C)C(Nc1ccccc1)c1cccnc1 (stereo not given) | -0.819% | 29.1 µM [falling, single point] | 
32 | CS(=O)(=O)N(CC(=O)N1CCCCC1)Cc1ccccc1 | -18.2% | 1.46 µM [falling, partial curve] | 
33 | CCc1cc2c(=O)c(-c3ccc(F)cc3)c(C(F)(F)F)oc2cc1OCC(=O)O | 128% | 29.1 µM [rising, single point] | 29.1 µM [rising, single point]
34 | CCOC(=O)c1c(C)[nH]c(C(=O)N/N=C/c2cc([N+](=O)[O-])ccc2O)c1C | 50% |  | 3.26 µM [rising, full curve]
35 | COc1ccc(-c2cc3cc(-c4cc(OC)c(OC)c(OC)c4)ccc3o2)cc1 | -1.58% |  | 
36 | CCN1CCCC1CNC(=O)CN(C)S(=O)(=O)c1ccc(Cl)cc1 (stereo not given) | 2.1% |  | 
37 | Cc1c(NC(=O)CCC(=O)N2CCCCC2)c(=O)n(-c2ccccc2)n1C | 4.23% | 29.1 µM [falling, single point] | 
38 | COc1ccc(/C=C/c2nnc(NC(=O)COc3cccc(C)c3)s2)cc1 | -3.37% |  | 
39 | O=C(O)CCSc1nc2ccc(Br)cc2[nH]1 |  | 16.4 µM [rising, single point] | 
40 | N#CCCN1CCN(C(=S)c2ccc(-c3cc(Cl)ccc3Cl)o2)CC1 | 5.1% |  | 
41 | O=C1/C(=C/c2cccc(F)c2)Oc2cc(O)ccc21 | 1.8% | 29.1 µM [falling, single point] | 
42 | OCCCc1nc2ccccc2n1CCOc1ccccc1 | -11.8% | 0.0651 µM [falling, full curve, poor fit] | 
43 | Cc1cc(C)nc(Nc2ncc(O)n2-c2ccc(Br)cc2)n1 | -0.621% | 6.51 µM [falling, single point] | 
44 | COc1ccccc1CNC(=O)N1CCN(c2ccccc2Cl)CC1 | -11.3% |  | 

Row | Structure (SMILES) | cell number change | AC50 [1] | AC50 [2]
45 | CCCc1cc(=O)[nH]c(SCc2nc3ccccc3o2)n1 | 5% | 10.3 µM [falling, single point] | 
46 | Cc1cccc(-c2nc(CS(=O)CC(=O)NCc3cccs3)c(C)o2)c1 (stereo not given) | -5.67% |  | 
47 | C=CCCC(=O)Nc1nc(C)c(-c2csc(Nc3ccc(Cl)cc3Cl)n2)s1 | -25.9% | 0.651 µM [falling, full curve, poor fit] | 
48 | COc1cccc(NC(=O)CN2C(=O)NC(C)(c3ccc(C)cc3)C2=O)c1 (stereo not given) | -0.901% |  | 
49 | CCOC(=O)c1ccc(S(=O)(=O)NNC(=O)COc2ccc(C)cc2)cc1 | 1.36% | 7.31 µM [rising, partial curve] | 
50 | CC(C)(C)NC(=O)Cn1nc(C(F)(F)F)c2c1CCCC2 | 9.46% | 0.517 µM [falling, single point] | 
51 | COc1ccc(S(=O)(=O)NC(C)c2ccccc2)cc1C(=O)N1CCCCC1 (stereo not given) | 8.11% |  | 
52 | CNC(=S)NNC(=O)Cc1ccc(O)cc1 | -18.4% | 25.9 µM [falling, partial curve] | 6.51 µM [rising, single point]
53 | CN(c1ccccc1)S(=O)(=O)c1ccc(Cl)c(C(=O)NCC(c2ccco2)N2CCCC2)c1 (stereo not given) | 0.435% |  | 
54 | O=C1c2ccccc2C(=O)C2OC12 (stereo not given) | -48.7% | 13 µM [falling, partial curve] | 13 µM [falling, partial curve]
55 | NNC(=O)c1ccc2nc(-c3ccc(Br)cc3)cn2c1 | -16.8% |  | 0.0116 µM [rising, full curve, poor fit]
56 | Cc1cccc(Nc2cc(=O)[nH]c(=O)[nH]2)c1 | 18.2% | 9.2 µM [rising, partial curve, poor fit] | 
57 | COc1ccc(CNC(=O)CN2C(=O)C(c3ccccc3)Oc3cccnc32)cc1 (stereo not given) | -1.73% | 6.51 µM [rising, single point] | 
58 | CC(C)c1ccc(OCC(=O)NCc2n[nH]c(=O)c3ccccc23)cc1 | -56.1% | 5.17 µM [falling, partial curve, poor fit] | 23.1 µM [falling, partial curve]
59 | CCOc1ccc(CCNC(=O)C2CCCN(c3ncnc4c3nc3n4CCCCC3)C2)cc1 (stereo not given) | 9.16% | 6.51 µM [rising, single point] | 6.51 µM [rising, single point]
60 | O=C(NCC(=O)N(Cc1ccco1)C(C(=O)NC1CCCCC1)c1cccnc1)c1ccco1 (stereo not given) | 25.4% | 0.731 µM [rising, single point] | 
61 | CCOC(=O)c1c(NC(=O)C(=O)N/N=C/c2ccccc2OC)sc2c1CCCCC2 | 3.33% | 6.51 µM [rising, single point] | 
62 | Nc1nc(NCc2ccco2)nc(N2CCCCC2)c1[N+](=O)[O-] | -16.8% | 29.1 µM [falling, partial curve, poor fit] | 0.00411 µM [rising, full curve, poor fit]
63 | Cc1ccc([N+](=O)[O-])cc1NC(=O)Nc1cccc(F)c1 | -56.4% | 23.1 µM [falling, partial curve] | 29.1 µM [falling, single point]
64 | COc1ccc(NC(=O)COc2ncnc3ccccc23)cc1S(=O)(=O)N1CCOCC1 | 81.7% | 3.66 µM [rising, full curve] | 

— PubChem BioAssay AID2685 (National Center for Advancing Translational Sciences (NCATS), 2010)
